PubChem BioAssay AID1259254 | NCATS, 2017
The deposit covers about 59,000 reagents; this is an unselected part. Over the whole deposit, about 1,550 (2.6%) are marked active. 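G2 share is only a proxy for re-replication; each gene was hit by three separate siRNAs, and active genes were retested.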 A number with no mark means an inactive call. The numbers tell different reagents against one gene apart. Further read-outs or replicates are left out here. Not stated in the record: the amount of reagent.

- Screen: 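Gene knock-downs that lead to re-replication, shown by excess G2 DNA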 (primary screen)
- Cells: human HCT116 colorectal cancer cells
- Knock-down reagent: single siRNA against human genes
- Duration: 3 days
- Read-out: 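Imaged Hoechst DNA stain sorts each cell into a cycle phase by DNA amount; per plate, G2 fraction set to 0% for non-targeting and 100% for GMNN siRNA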
- Direction: G2 robust z-score: higher = more G2 cells, more excess DNA replication
- Active means: 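An siRNA counts as active if its G2 robust z-score lies at least 5 MADs above the screen median; here such calls match roughly 38% of GMNN control or more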

The opening 8 entries as a preview:
| gene knocked down | reagent | G2 robust z-score |
| --- | --- | --- |
| FGF8 | 1 | -0.824 |
| FGF8 | 2 | -0.0986 |
| FGF8 | 3 | 0.334 |
| BEST3 | 1 | -0.666 |
| BEST3 | 2 | 1.85 |
| BEST3 | 3 | 0.346 |
| NR1D2 | 1 | -0.0768 |
| NR1D2 | 2 | -0.394 |

Results, repeating the preview:
| gene knocked down | reagent | G2 robust z-score |
| --- | --- | --- |
| FGF8 | 1 | -0.824 |
| FGF8 | 2 | -0.0986 |
| FGF8 | 3 | 0.334 |
| BEST3 | 1 | -0.666 |
| BEST3 | 2 | 1.85 |
| BEST3 | 3 | 0.346 |
| NR1D2 | 1 | -0.0768 |
| NR1D2 | 2 | -0.394 |
| NR1D2 | 3 | 0.0988 |
| FAAH2 | 1 | -0.369 |
| FAAH2 | 2 | -0.393 |
| FAAH2 | 3 | 0.448 |
| SNPH | 1 | -0.496 |
| SNPH | 2 | -0.234 |
| SNPH | 3 | 1.12 |
| TMEM81 | 1 | 0.88 |
| TMEM81 | 2 | -0.246 |
| TMEM81 | 3 | 0.549 |
| FAM194C | 1 | -0.352 |
| FAM194C | 2 | -0.533 |
| FAM194C | 3 | -0.261 |
| WDR35 | 1 | -1.13 |
| WDR35 | 2 | -0.602 |
| WDR35 | 3 | -0.32 |
| CTSE | 1 | 3.83 |
| CTSE | 2 | -0.00247 |
| CTSE | 3 | -0.0726 |
| ECI1 | 1 | 0.18 |
| ECI1 | 2 | 2.29 |
| ECI1 | 3 | -0.317 |
| GOLGA8A | 1 | -0.563 |
| GOLGA8A | 2 | -0.98 |
| GOLGA8A | 3 | 1.48 |
| RNGTT | 1 | -0.998 |
| RNGTT | 2 | 0.61 |
| RNGTT | 3 | -0.778 |
| DUSP7 | 1 | 4.44 |
| DUSP7 | 2 | -0.031 |
| DUSP7 | 3 | 2.2 |
| ZNF583 | 1 | 0.0508 |
| ZNF583 | 2 | -0.041 |
| ZNF583 | 3 | 0.0471 |
| NXPH4 | 1 | -0.141 |
| NXPH4 | 2 | -0.765 |
| NXPH4 | 3 | 4.68 |
| DSCAM | 1 | -0.835 |
| DSCAM | 2 | 0.03 |
| DSCAM | 3 | -0.0574 |
| CSAG3 | 1 | -0.55 |
| CSAG3 | 2 | -0.207 |
| CSAG3 | 3 | 0.779 |
| SLC23A2 | 1 | 0.677 |
| SLC23A2 | 2 | -0.565 |
| SLC23A2 | 3 | 0.47 |
| LINC03040 | 1 | -0.758 |
| LINC03040 | 2 | -0.000991 |
| LINC03040 | 3 | 4 |
| NAT9 | 1 | -0.0908 |
| NAT9 | 2 | 0.492 |
| NAT9 | 3 | -1.06 |
| TMEM256P1 | 1 | 1.98 |
| TMEM256P1 | 2 | 0.471 |
| TMEM256P1 | 3 | 0.776 |
| SH2D1B | 1 | -0.77 |
| SH2D1B | 2 | 0.544 |
| SH2D1B | 3 | -0.214 |
| ASAH2B | 1 | -0.346 |
| ASAH2B | 2 | 0.791 |
| ASAH2B | 3 | 1 |
